Measured values as given in the supplement of paper PMC10849652.
This is one part of the list.

The chains behind the UniProt entries cited, without tags or fusion partners. Where a name states a change or a piece, a line headed by the entry shows the natural chain unless it says otherwise.
UniProt Q96HY6: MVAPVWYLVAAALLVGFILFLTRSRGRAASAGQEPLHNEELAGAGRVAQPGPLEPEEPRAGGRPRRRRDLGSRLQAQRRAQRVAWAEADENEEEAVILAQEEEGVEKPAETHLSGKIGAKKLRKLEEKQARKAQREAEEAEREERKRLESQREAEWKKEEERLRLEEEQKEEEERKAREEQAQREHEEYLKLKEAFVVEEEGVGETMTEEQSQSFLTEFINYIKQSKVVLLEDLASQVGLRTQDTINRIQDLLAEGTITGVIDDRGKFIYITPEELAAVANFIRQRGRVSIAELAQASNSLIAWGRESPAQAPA
UniProt Q9NW81: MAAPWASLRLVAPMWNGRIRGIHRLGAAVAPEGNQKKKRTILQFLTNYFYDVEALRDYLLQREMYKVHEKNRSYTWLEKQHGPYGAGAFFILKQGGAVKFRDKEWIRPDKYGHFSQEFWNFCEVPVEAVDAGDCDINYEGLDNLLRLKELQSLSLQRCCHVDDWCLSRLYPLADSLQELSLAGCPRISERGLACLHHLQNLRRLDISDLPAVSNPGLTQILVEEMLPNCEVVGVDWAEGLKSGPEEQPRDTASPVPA
UniProt Q9BTZ2: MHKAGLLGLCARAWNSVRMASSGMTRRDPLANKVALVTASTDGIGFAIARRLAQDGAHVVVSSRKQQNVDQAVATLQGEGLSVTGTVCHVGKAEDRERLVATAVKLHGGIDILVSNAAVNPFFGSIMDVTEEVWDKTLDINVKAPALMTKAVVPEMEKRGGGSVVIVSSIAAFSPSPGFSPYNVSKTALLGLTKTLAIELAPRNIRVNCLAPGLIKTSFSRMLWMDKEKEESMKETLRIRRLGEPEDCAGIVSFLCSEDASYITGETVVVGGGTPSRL
UniProt Q96JB1: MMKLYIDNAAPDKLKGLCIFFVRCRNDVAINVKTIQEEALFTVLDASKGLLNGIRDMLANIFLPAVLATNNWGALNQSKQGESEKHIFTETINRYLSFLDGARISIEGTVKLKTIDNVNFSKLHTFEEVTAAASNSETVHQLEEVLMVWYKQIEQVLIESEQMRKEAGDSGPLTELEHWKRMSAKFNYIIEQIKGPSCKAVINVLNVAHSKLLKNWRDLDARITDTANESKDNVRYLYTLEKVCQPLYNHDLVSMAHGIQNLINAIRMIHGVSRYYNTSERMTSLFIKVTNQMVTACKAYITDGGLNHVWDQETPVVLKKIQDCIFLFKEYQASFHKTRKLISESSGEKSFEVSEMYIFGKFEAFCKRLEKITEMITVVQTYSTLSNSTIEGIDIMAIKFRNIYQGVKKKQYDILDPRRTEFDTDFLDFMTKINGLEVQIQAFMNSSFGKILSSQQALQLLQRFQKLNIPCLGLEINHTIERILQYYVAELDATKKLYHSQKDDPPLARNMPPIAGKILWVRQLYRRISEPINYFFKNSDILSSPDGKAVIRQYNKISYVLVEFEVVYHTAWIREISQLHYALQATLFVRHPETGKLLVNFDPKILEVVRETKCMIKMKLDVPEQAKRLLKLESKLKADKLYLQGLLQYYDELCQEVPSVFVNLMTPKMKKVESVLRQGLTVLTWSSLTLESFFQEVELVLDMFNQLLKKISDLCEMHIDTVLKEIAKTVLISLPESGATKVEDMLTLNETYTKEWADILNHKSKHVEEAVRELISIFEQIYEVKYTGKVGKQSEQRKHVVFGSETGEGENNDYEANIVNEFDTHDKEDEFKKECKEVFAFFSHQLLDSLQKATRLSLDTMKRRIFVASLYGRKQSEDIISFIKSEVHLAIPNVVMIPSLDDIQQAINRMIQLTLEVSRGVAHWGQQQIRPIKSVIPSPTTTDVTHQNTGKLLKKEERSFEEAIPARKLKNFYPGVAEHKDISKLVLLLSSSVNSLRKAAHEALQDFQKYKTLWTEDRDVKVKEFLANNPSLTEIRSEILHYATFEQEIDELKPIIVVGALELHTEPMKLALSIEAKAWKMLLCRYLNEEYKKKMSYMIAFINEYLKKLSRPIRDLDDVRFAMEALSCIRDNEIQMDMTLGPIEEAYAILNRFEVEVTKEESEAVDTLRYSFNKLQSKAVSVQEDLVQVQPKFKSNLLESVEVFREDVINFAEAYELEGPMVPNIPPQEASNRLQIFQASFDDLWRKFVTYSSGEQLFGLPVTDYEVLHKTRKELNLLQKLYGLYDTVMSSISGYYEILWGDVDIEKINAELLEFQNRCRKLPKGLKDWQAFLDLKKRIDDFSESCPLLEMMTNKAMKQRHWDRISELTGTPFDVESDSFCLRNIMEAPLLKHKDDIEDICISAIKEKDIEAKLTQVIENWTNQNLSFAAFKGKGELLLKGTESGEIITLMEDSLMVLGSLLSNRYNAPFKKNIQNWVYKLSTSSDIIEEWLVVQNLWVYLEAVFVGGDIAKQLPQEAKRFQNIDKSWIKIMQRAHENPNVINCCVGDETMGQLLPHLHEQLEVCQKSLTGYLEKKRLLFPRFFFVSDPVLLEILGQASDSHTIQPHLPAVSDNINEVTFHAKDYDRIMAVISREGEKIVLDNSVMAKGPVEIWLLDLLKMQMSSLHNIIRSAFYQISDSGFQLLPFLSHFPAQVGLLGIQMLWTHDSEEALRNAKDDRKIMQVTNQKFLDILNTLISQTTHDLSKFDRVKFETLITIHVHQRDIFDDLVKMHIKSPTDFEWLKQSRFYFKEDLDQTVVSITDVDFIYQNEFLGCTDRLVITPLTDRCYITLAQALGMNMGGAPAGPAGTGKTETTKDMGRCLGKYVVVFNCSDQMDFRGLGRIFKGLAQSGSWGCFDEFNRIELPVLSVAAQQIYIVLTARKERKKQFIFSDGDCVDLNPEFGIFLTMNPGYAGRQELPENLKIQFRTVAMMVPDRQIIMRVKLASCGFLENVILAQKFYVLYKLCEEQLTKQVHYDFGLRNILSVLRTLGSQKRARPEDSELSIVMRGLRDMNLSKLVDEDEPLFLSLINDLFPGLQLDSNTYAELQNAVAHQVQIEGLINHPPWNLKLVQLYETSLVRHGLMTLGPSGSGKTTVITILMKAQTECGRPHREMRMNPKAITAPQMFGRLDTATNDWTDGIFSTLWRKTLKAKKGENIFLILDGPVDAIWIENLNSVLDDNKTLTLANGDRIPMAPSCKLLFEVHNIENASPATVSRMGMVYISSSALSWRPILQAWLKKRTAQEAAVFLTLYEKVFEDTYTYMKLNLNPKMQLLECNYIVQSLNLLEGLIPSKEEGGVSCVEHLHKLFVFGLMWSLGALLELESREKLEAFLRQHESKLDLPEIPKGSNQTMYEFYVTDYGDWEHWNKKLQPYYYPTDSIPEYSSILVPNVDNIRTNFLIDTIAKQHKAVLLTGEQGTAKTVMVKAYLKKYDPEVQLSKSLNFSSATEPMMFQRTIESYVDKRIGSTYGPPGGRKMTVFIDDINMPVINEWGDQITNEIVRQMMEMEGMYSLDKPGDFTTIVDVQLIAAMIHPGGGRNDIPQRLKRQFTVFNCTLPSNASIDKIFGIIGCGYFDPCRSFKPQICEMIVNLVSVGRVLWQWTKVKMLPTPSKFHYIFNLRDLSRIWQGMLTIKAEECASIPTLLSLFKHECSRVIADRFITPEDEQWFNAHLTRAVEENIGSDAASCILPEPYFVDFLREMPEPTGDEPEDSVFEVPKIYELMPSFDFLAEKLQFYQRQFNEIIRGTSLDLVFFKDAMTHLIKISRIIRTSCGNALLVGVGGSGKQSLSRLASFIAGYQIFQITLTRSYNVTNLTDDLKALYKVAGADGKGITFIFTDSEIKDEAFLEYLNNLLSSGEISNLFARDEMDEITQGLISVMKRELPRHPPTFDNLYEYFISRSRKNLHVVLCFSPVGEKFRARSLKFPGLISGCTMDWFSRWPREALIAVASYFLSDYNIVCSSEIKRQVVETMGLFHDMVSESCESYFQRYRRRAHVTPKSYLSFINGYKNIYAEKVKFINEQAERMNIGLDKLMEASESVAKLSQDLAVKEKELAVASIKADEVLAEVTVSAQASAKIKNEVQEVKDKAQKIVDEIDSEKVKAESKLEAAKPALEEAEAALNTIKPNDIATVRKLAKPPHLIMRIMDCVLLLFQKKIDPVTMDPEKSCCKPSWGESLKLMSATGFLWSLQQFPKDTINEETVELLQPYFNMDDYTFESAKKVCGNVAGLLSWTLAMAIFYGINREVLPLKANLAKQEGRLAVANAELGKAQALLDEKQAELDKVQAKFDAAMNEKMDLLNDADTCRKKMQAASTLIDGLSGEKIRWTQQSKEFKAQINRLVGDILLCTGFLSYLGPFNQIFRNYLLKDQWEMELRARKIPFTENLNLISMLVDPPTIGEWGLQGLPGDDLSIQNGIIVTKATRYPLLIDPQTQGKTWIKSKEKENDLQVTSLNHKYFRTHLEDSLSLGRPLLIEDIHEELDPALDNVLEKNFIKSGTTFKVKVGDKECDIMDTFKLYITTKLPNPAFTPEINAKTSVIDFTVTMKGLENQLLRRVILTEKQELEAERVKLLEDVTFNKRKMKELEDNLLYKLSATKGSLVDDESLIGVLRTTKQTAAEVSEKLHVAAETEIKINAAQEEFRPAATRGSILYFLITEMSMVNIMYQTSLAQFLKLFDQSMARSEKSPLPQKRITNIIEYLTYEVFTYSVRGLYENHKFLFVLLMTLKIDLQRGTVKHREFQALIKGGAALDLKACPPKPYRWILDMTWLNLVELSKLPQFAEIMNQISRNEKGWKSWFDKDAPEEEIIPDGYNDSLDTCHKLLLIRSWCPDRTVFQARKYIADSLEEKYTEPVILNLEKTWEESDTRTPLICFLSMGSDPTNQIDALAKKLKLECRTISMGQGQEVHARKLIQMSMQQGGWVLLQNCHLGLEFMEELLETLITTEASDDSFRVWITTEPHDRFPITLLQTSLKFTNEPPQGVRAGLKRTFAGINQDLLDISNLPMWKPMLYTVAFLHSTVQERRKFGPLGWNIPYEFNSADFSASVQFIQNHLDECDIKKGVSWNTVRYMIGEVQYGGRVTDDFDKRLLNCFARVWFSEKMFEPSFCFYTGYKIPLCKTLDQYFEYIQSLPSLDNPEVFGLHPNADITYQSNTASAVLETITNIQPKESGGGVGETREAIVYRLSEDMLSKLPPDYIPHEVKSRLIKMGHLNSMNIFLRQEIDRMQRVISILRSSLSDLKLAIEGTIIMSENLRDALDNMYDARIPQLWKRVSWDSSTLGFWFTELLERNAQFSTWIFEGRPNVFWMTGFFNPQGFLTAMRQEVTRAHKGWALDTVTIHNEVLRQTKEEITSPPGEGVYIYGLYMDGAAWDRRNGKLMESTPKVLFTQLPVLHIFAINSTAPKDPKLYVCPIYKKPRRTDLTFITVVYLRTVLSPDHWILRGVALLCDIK
UniProt P51530: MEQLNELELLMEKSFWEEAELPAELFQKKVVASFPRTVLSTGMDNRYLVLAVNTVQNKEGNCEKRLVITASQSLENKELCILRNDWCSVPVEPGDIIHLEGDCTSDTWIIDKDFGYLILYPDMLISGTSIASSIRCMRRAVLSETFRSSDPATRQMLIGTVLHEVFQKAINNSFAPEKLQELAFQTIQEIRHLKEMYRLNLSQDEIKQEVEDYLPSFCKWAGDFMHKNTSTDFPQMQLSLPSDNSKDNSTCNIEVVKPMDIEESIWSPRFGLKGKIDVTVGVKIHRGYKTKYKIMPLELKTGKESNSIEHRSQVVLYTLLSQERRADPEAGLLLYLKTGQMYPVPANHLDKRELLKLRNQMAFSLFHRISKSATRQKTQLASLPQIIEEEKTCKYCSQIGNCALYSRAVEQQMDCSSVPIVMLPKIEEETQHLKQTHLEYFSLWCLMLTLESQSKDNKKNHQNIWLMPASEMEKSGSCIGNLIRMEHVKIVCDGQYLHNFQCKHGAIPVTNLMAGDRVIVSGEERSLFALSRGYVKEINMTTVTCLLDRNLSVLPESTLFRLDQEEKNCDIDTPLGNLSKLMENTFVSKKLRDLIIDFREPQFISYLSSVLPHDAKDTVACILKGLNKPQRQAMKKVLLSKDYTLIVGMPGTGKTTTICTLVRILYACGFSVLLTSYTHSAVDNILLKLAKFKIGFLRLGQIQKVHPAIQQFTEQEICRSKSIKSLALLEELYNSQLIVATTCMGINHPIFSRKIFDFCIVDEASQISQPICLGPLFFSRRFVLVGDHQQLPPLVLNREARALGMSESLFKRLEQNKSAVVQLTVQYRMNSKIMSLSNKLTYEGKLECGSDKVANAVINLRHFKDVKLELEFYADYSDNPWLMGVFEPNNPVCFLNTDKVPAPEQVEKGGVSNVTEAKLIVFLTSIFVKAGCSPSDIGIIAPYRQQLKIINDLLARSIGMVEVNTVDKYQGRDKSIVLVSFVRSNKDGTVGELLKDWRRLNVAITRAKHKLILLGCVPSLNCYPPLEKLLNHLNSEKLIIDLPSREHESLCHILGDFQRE

Assays:
Assay in all cases: log2 fold change, soluble protein after heating vs DMSO (PISA); higher = thermal stabilisation; K562 cells, 10 uM, 30 min; active = over 0.2 and 3.5 SD of the protein, either way, in both replicates (recomputed)
[1] = compound: CC1=C(C=C(C=C1)NC(=O)C2=CC(=CC=C2)C(C)(C)C#N)NC3=CC4=C(C=C3)N=CN(C4=O)C
Outline: (§1)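 K562 cells (2×10^6 cells/mL) were treated with 10 μM compound for 30 min, and aliquots were heated for 3 min over 48°C-58°C. Pooled aliquots were extracted in PBS with 0.5% NP-40 at 4°C, and the supernatant after 21,000xg for 90 min was measured by TMTpro 16plex LC-MS/MS with channel sums equalised. Reported thermal stability, relative to control samples and from duplicates, is a log2 fold change.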

[2] = compound: CC1=C(C=C(C=C1)NC(=O)C2=CC(=CC=C2)N(C)C)NC(=O)C3=CC=C(C=C3)O
Outline: as §1

[3] = compound: CC1=CC=C(C=C1)SC2=C3C=C(SC3=CN=C2)C(=O)N
Outline: as §1

[4] = compound: CC1=NC(=CC=C1)C2=C(N=C(N2)C(C)(C)C)C3=CC4=NC=CN=C4C=C3
Outline: as §1

Nexturastat A = compound: CCCCN(Cc1ccc(C(=O)NO)cc1)C(=O)Nc1ccccc1 [Nexturastat A]
Outline: as §1

vemurafenib = compound: CCCS(=O)(=O)Nc1ccc(F)c(C(=O)c2c[nH]c3ncc(-c4ccc(Cl)cc4)cc23)c1F [vemurafenib]
Outline: as §1

[5] = compound: CCCS(=O)(=O)Nc1ccc(F)c(C(=O)c2c[nH]c3ncc(Cl)cc23)c1F
Outline: as §1

[6] = compound: CCCc1cc(C)[nH]c(=O)c1CNC(=O)c1cc(-c2ccnc(N3CCN(C)CC3)c2)cc2c1cnn2C(C)C
Outline: as §1

givinostat = compound: CCN(CC)Cc1ccc2cc(COC(=O)Nc3ccc(C(=O)NO)cc3)ccc2c1 [givinostat]
Outline: as §1

barasertib = compound: CCN(CCCOc1ccc2c(Nc3cc(CC(=O)Nc4cccc(F)c4)[nH]n3)ncnc2c1)CCOP(=O)(O)O [barasertib]
Outline: as §1

[7] = compound: CC[C@@H]1C(=O)N(C)c2cnc(Nc3ccc(C(=O)NC4CCN(C)CC4)cc3OC)nc2N1C1CCCC1
Outline: as §1

volasertib = compound: CC[C@@H]1C(=O)N(C)c2cnc(Nc3ccc(C(=O)N[C@H]4CC[C@H](N5CCN(CC6CC6)CC5)CC4)cc3OC)nc2N1C(C)C [volasertib]
Outline: as §1

[8] = compound: CC[C@H](C)N1C=C(C2=C(C=C(C=C21)C3=CN=C(C=C3)N4CCNCC4)C(=O)NCC5=C(C=C(NC5=O)C)C)C
Outline: as §1

epoxomicin = compound: CC[C@H](C)[C@@H](C(=O)N[C@@H]([C@@H](C)O)C(=O)N[C@@H](CC(C)C)C(=O)[C@]1(CO1)C)NC(=O)[C@H]([C@@H](C)CC)N(C)C(=O)C [epoxomicin]
Outline: as §1

[9] = compound: CCn1c(C(=O)N(C2CC2)C2CC2)cc2c3c(ncn3C)c(Nc3cc(C)n(C)n3)nc21
Outline: as §1

[10] = compound: CCn1cc(-c2ccnc3[nH]c(-c4cccc(CN(C)C)c4)cc23)c(-c2ccc(NC(=O)N(C)C)cc2)n1
Outline: as §1

[11] = compound: CN(C)CC(=O)Nc1ccc2[nH]c(=O)c3ccccc3c2c1
Outline: as §1

rosiglitazone = compound: CN(CCOC1=CC=C(C=C1)C[C@H]2C(=O)NC(=O)S2)C3=CC=CC=N3 (racemic) [rosiglitazone]
Outline: as §1

[12] = compound: CN1C2=C(C3=C1C(=O)N(N=C3)CC4=CC(=CC=C4)N)SC(=C2)S(=O)C
Outline: as §1

[13] = compound: CN1CCC(CNc2ccc3ncc(-c4cccc(OC(F)(F)F)c4)n3n2)CC1
Outline: as §1

Measured: log2 fold change

DCXR (UniProt Q7Z4W1)
inactive: [1] -0.036 | [2] 0.01 | [3] 0.011 | [4] 0.005 | Nexturastat A -0.085 | vemurafenib -0.041 | [5] -0.007 | [6] -0.082 | givinostat -0.016 | barasertib -0.025 | [7] 0.019 | volasertib -0.005 | [8] -0.062 | epoxomicin -0.013 | [9] 0.024 | [10] 0.019 | [11] 0.004 | rosiglitazone -0.01 | [12] -0.056 | [13] -0.005

DLGAP5 (UniProt Q15398)
inactive: [1] 0.035 | [2] -0.033 | [3] -0.018 | [4] -0.058 | Nexturastat A 0.074 | vemurafenib 0.041 | [5] 0.04 | [6] -0.031 | givinostat 0.04 | barasertib 0.063 | [7] -0.082 | volasertib -0.222 | [8] 0.064 | epoxomicin -0.019 | [9] -0.076 | [10] -0.015 | [11] 0.062 | rosiglitazone 0.037 | [12] 0.004 | [13] -0.06

DDX39A (UniProt O00148)
inactive: [1] -0.018 | [2] -0.016 | [3] 0.02 | [4] 0.027 | Nexturastat A 0.015 | vemurafenib 0.004 | [5] 0.017 | [6] 0.074 | givinostat 0.076 | barasertib 0.035 | [7] 0.037 | volasertib -0.104 | [8] 0.034 | epoxomicin -0.096 | [10] -0.123 | [11] -0.002 | [12] 0.038 | [13] -0.016

DIS3L2 (UniProt Q8IYB7)
inactive: [1] -0.04 | [2] 0.019 | [3] -0.004 | [4] -0.052 | Nexturastat A 0.076 | vemurafenib 0.017 | [5] -0.062 | [6] 0 | givinostat -0.004 | barasertib 0 | [7] 0.003 | volasertib -0.05 | [8] 0.026 | epoxomicin -0.032 | [9] 0.021 | [10] -0.038 | [11] -0.029 | rosiglitazone 0.263 | [12] 0.002 | [13] -0.014

DIS3 (UniProt Q9Y2L1)
inactive: [1] 0.039 | [2] -0.049 | [3] 0.027 | [4] 0.013 | Nexturastat A -0.047 | vemurafenib 0.045 | [5] 0.047 | [6] 0.047 | givinostat 0.121 | barasertib 0.096 | [7] -0.105 | volasertib -0.212 | [8] 0.084 | epoxomicin 0.044 | [9] -0.083 | [10] -0.052 | [11] 0.083 | rosiglitazone 0.089 | [12] -0.024 | [13] -0.156

DNAAF2 (UniProt Q9NVR5)
inactive: [1] -0.037 | [2] -0.043 | [3] -0.046 | [4] -0.038 | Nexturastat A -0.034 | vemurafenib 0.043 | [5] -0.038 | [6] -0.065 | givinostat 0 | barasertib -0.009 | [7] 0.11 | volasertib -0.113 | [8] -0.031 | epoxomicin -0.012 | [10] 0.095 | [11] 0 | [12] 0.042
active: [13] -0.279

DDRGK1 (UniProt Q96HY6)
inactive: [1] 0.016 | [2] -0.024 | [3] -0.051 | [4] -0.009 | Nexturastat A 0.057 | vemurafenib -0.025 | [5] -0.073 | [6] -0.011 | givinostat 0.055 | barasertib -0.042 | [7] 0.023 | volasertib -0.024 | [8] -0.048 | epoxomicin 0.066 | [9] 0.003 | [10] 0.02 | [11] -0.068 | rosiglitazone 0.037 | [12] -0.086 | [13] 0.028

DDX6 (UniProt P26196)
inactive: [1] -0.015 | [2] 0.007 | [3] 0.001 | [4] 0.005 | Nexturastat A 0.078 | vemurafenib -0.028 | [5] 0.016 | [6] 0.087 | givinostat 0.039 | barasertib -0.006 | [7] 0.019 | volasertib 0.051 | [8] 0.03 | epoxomicin -0.028 | [9] 0.005 | [10] -0.021 | [11] -0.047 | rosiglitazone 0.025 | [12] 0.038 | [13] 0.007

DMAC2 isoform 4 (UniProt Q9NW81)
inactive: [1] -0.068 | [2] 0.074 | [3] 0.084 | [4] 0.034 | Nexturastat A -0.02 | vemurafenib 0.008 | [5] 0.084 | [6] -0.005 | givinostat -0.003 | barasertib -0.162 | [7] 0.087 | volasertib -0.18 | [8] -0.036 | epoxomicin 0.069 | [9] -0.151 | [10] -0.003 | [11] -0.027 | rosiglitazone 0.071 | [12] -0.011 | [13] -0.151

DHX15 (UniProt O43143)
inactive: [1] -0.006 | [2] 0.015 | [3] 0.015 | [4] -0.002 | Nexturastat A -0.018 | vemurafenib -0.013 | [5] -0.002 | [6] -0.013 | givinostat -0.068 | barasertib 0 | [7] 0.001 | volasertib 0.045 | [8] -0.017 | epoxomicin 0.006 | [9] -0.03 | [10] 0.001 | [11] -0.028 | rosiglitazone 0.011 | [12] -0.051 | [13] -0.021

DHX57 (UniProt Q6P158)
inactive: [1] 0.013 | [2] -0.01 | [3] -0.009 | [4] -0.055 | Nexturastat A 0.116 | vemurafenib 0.005 | [5] 0.011 | [6] 0.122 | givinostat -0.006 | barasertib -0.073 | [7] 0.139 | volasertib 0.088 | [8] 0.03 | epoxomicin -0.056 | [9] 0.004 | [10] 0.049 | [11] -0.025 | rosiglitazone -0.047 | [12] 0.153 | [13] 0.104

DENND6A (UniProt Q8IWF6)
inactive: [1] 0.035 | [2] 0.033 | [3] 0.061 | [4] 0.041 | Nexturastat A -0.023 | vemurafenib -0.039 | [5] 0.037 | [6] -0.057 | givinostat 0.076 | barasertib -0.101 | [7] 0.021 | volasertib -0.178 | [8] 0.113 | epoxomicin 0.068 | [9] -0.01 | [10] 0.215 | [11] -0.053 | rosiglitazone 0.13 | [12] 0.056 | [13] -0.225

DHRS4 (UniProt Q9BTZ2)
inactive: [1] -0.024 | [2] 0.031 | [3] 0.012 | [4] 0.046 | Nexturastat A -0.167 | vemurafenib 0.013 | [5] 0.04 | [6] 0.015 | givinostat -0.022 | barasertib -0.005 | [7] 0.082 | volasertib 0.159 | [8] 0.016 | epoxomicin 0.047 | [9] 0.011 | [10] 0.042 | [11] -0.003 | rosiglitazone 0.02 | [12] -0.085 | [13] 0.073

DHX9 (UniProt Q08211)
inactive: [1] -0.005 | [2] -0.01 | [3] -0.073 | [4] -0.061 | Nexturastat A 0.148 | vemurafenib -0.053 | [5] -0.02 | [6] 0.109 | givinostat 0.06 | barasertib -0.15 | [7] 0.214 | volasertib -0.006 | [8] 0 | epoxomicin -0.207 | [9] -0.058 | [10] 0.196 | [11] -0.073 | rosiglitazone -0.15 | [12] 0.201 | [13] 0.266

Taken from the results shown (2 entries):
DHRS4 (UniProt Q9BTZ2)
inactive: [1] -0.024 | [2] 0.031 | [3] 0.012 | [4] 0.046 | Nexturastat A -0.167 | vemurafenib 0.013 | [5] 0.04 | [6] 0.015 | givinostat -0.022 | barasertib -0.005 | [7] 0.082 | volasertib 0.159 | [8] 0.016 | epoxomicin 0.047 | [9] 0.011 | [10] 0.042 | [11] -0.003 | rosiglitazone 0.02 | [12] -0.085 | [13] 0.073

DHX9 (UniProt Q08211)
inactive: [1] -0.005 | [2] -0.01 | [3] -0.073 | [4] -0.061 | Nexturastat A 0.148 | vemurafenib -0.053 | [5] -0.02 | [6] 0.109 | givinostat 0.06 | barasertib -0.15 | [7] 0.214 | volasertib -0.006 | [8] 0 | epoxomicin -0.207 | [9] -0.058 | [10] 0.196 | [11] -0.073 | rosiglitazone -0.15 | [12] 0.201 | [13] 0.266

(continued)

DNAH8 (UniProt Q96JB1)
inactive: [1] -0.048 | [2] 0.095 | [3] -0.041 | [4] -0.09 | Nexturastat A 0.1 | vemurafenib 0.059 | [5] -0.082 | [6] -0.052 | givinostat 0.244 | barasertib -0.046 | [7] 0.065 | volasertib 0.208 | [8] -0.155 | epoxomicin -0.154 | [9] -0.158 | [11] -0.01 | rosiglitazone 0.087 | [12] -0.147

DNA2 (UniProt P51530)
inactive: [1] -0.392 | [3] -0.061 | [4] -0.065 | Nexturastat A 0.307 | vemurafenib 0.008 | [5] 0.046 | barasertib -0.107 | [7] 0.063 | volasertib -0.452 | [8] -0.147 | epoxomicin -0.047 | [10] -0.074 | [11] 0.126 | rosiglitazone 0.358 | [13] -0.007
